# Laboratory results published in the supplement of paper PMC10338343.
# ± gives the standard deviation. The entries are a selection whose mix differs from that of the whole data set. The uncertainty is large for many entries.
# Tested on: MILI (PIWIL2) piRISC loaded with L1MC piRNA (26 nt)
# Assay: pre-steady-state target cleavage rate (min^-1); MIWI and MILI are mouse PIWI proteins and EfPiwi is from a freshwater sponge; tags in brackets are library labels; higher = faster piRNA-guided slicing of the target
# Conditions: guide: L1MC piRNA 5'p-UAACUAAAUACUAUGCAAGCUGUAGG; auxiliary factor: 500 nM mouse GTSF1
# Experimental: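 Cleave-'n-Seq: a library of target RNAs (target site embedded in constant flanks, ACAGCATTCCGCGTTAGTGATATCCG... 5' flank; DNA-blocked outside the site) at 0.1 nM was incubated with 1 nM active mouse MILI or MIWI piRISC (synthetic 5'-monophosphorylated piRNA guide) with or without 500 nM mouse GTSF1 at 33 °C for 1 min to 16 h. Uncleaved targets were sequenced and normalised to non-target controls, and the pooled three trials were fitted to a burst-and-steady-state model to give the pre-steady-state cleavage rate (min^-1; k3 is constrained to at most 1e-4). Sequence is the target site only; target names encode pairing extent (gX:gY) and contiguous / 1-mismatch / 2-mismatch / bulge geometry. Fits with R² ≤ 0 are excluded.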
row,Sequence,pre-steady-state target cleavage rate
1,UCCUGCUAGACCUUGCAUAGUAUUUAGUUA,0.171 ± 0.02
2,UCCUGGAUGUCGAACGUAUGUUAUUAGUUA,0.000141 ± 0.05
3,UCCUGGAUGUCGUUGCAAAGUAUUUAGAUA,0.00273 ± 0.0043
4,UCCUGGAACAGCAACCAUAGUAUUUAGUAA,0.143 ± 0.019
5,UCCUGGAUGUGCUUGCAUACAUUUUAGUUA,0.00178 ± 0.0073
6,UCCUCCUACAGCUUGCAAAGAAUUUAGUUA,0.0165 ± 0.0051
7,UCCUGGAACAGCUUGCAUACUUUUUAGUUA,0.000911 ± 0.014
8,UCCUGGAACAGCUUGCAUAGAUAUUAGAAA,0.00344 ± 0.0041
9,UCCUGGAUGUCCUUGCAUACUAUUUAGAUA,0.00286 ± 0.0044
10,UCCUGGAACAGCUUGCAUAGUAUUUAGUUUA,0.321 ± 0.018

# Same assay, conditions: guide: L1MC piRNA 5'p-UAACUAAAUACUAUGCAAGCUGUAGG; auxiliary factor: none (no GTSF1)
row,Sequence,pre-steady-state target cleavage rate
1,UCCUCCUACAGCUACCAUAGUAUUUUCAAA,0.000744 ± 0.0062
2,UCCUGGAUGAGCUUCCAUAGAAUUUAGUUA,0.000276 ± 0.019
3,UCCUGGAUCAGCUUGCAUAGUAAUUAGAUA,0.00272 ± 0.0029
4,UCCUGGAACAGCAAGCAUAGUAUUUAGAAA,0.00152 ± 0.0046
5,UCCUGCUAGACCUUGCAUAGUAUUUAGUUA,0.00811 ± 0.0031
6,UCCUGGUACAGCAAGCAUAGUAUUUAGAAA,0.0011 ± 0.0048
7,UCCUGCUAGUCCUUGCAUAGUAUUUUCAAA,0.000619 ± 0.0099
8,UCCUGGUAGAGCUUGCAUAGUAUUUAGAUA,0.00292 ± 0.003
9,UCCUGGAUGUCGAAGCAUAGAAAUUAGUUA,0.000194 ± 0.022
10,UCCUGGAUGUCGAACGUAUGUUAUUAGUUA,0.000253 ± 0.016
11,UCCUGGAUGUCGAUGCAUAGUAUUAAGAUA,0.00035 ± 0.013
12,UCCUGGAUGUCCUUGCAUACUAUUUACUUA,0.00131 ± 0.0037
13,UCCUGCUACACGUUGCAUAGUAUUUUCAAA,0.000689 ± 0.011
14,UCCUGGAUGUCGUUGCAAAGUAUUUAGAUA,0.000918 ± 0.0065
15,UCCUGGAUGUCGUUGACAUAGUAUUUAGUUA,0.000292 ± 0.012
16,UCCUCCUACUGCUUCCAUAGUAUUUAGUUA,0.00149 ± 0.0032
17,UCCUGGAACAGCAACCAUAGUAUUUAGUAA,0.00157 ± 0.0045
18,UCCUGGAUGUGCUUGCAUACAUUUUAGUUA,0.00207 ± 0.0038
19,UCCUCCUACAGCUUGCAAAGAAUUUAGUUA,0.0022 ± 0.0027
20,UCCUGGAUGUGCUACGAUAGUAUUUAGUAA,0.000407 ± 0.013
21,UCCUGGAACAGCUUGCAUACUUUUUAGUUA,0.002 ± 0.0031
22,UCCUGGUACACGUUGCAUAGUAUUUAGUAA,0.00278 ± 0.0045
23,UCCUGGAACAGCUUGCAUAGAUAUUAGAAA,0.000899 ± 0.006
24,UCCUGGAUGUCGUUGCAUAGUAUUCAGUUA,0.00182 ± 0.0044
25,UCCUGGUACAGCUACGAUAGUAUUUAGAAA,0.000687 ± 0.0086
26,UCCUGGAUGUCGUUGCAUAGUAUUAUGUUA,0.00224 ± 0.0047
27,UCCUGGAUGUCCUUGCAUACUAUUUAGAUA,0.000977 ± 0.005
28,UCCUGGAUCAGGAUGCAUAGUAUUUUCAAA,0.000312 ± 0.013
29,UCCUGGAUGUGCUUGCAUACAUUUUAGUAA,0.000412 ± 0.015
30,UCCUGCUACAGCUUGCUAUGUAUUUUCAAA,0.000453 ± 0.011
